Data reported in US4908322A, “Derivatization of amines for electrochemical detection” (The United States of America as represented by the …, priority 1988, dated 1990).
Values joined by “and” are separate entries in the source; they are usually repeats but may differ in a detail not shown here. Equal entries are not always repeated.

Legend:
[1] = Limit of sensitivity of serotonin determination (human CSF)
[2] = Between run precision in artificial CSF
[3] = Within run precision with artificial CSF (recovery of 5-HT and acetyl 5-HT after N-succinimidyl propionate derivatization, HPLC with electrochemical detection)
[4] = Limit of sensitivity (signal/noise=3) of histamine and methylhistamine derivatives; details: of the pure amines, measured as derivatives
[5] = for calculated reaction yield: derivatization with sulfo B-H; for [C] recovery of derivative after cellulose phosphate column: n = 4, mean recovery of 100 pmol of pure derivative
[6] = Brain tissue assay: recovery tests and precision in rat hypothalamus; details: rat hypothalami homogenate, 100 pmol added
[7] = conc. (M/l × 10^10) = 4, 0.0004 µM
[8] = conc. (M/l × 10^10) = 10, 0.001 µM
[9] = conc. (× 10^10) M/l = 4, 0.0004 µM, 0.0004 µM
[10] = conc. (× 10^10) M/l = 10, 0.001 µM, 0.001 µM

Row | Structure (SMILES) | detection limit [1] [parts per trillion] | limit of sensitivity [1] [picomol/ml CSF] | % Recovery (Mean ± S.D.) ([2]; conc. (M/l × 10^10) = 1, 0.0001 µM) [%] | % Recovery (Mean ± S.D.) [2, 7] [%] | % Recovery (Mean ± S.D.) [2, 8] [%] | % Recovery Mean ± S.D. ([3]; conc. (× 10^10) M/l = 1, 0.0001 µM) | % Recovery (individual portion) ([3]; conc. (× 10^10) M/l = 1, 0.0001 µM, 0.0001 µM) | % Recovery (individual portion) [3, 9] | % Recovery (individual portion) [3, 10] | detection limit (signal/noise=3) [4] [pmol] | calculated reaction yield [5] [%] | [C] recovery of derivative after cellulose phosphate column [5] [%] | recovery [6] [%] | % Recovery Mean ± S.D. [3, 9]
1 | NCCc1c[nH]c2ccc(O)cc12 [5-HT, 5-hydroxytryptamine] | 18 | 0.1 | 50 ± 17.7 | 55.74 ± 13.90 | 45.28 ± 18.12 | 50 + 17.7% | 50% and 25% and 75% | 68.6% and 62.9% and 74.3% and 52.4% and 57.1% and 47.6% and 42.9% and 84.8% and 78.8% and 60.6% and 66.7% and 64.7% and 52.9% and 41.1% and 35.3% and 32.4% and 40% and 45% and 50% and 36% and 44% | 98% and 50% and 43.2% and 52.3% and 30.8% and 40.4% and 36.5% and 53.7% and 51.2% and 56.1% and 78.1% and 68.3% and 39.3% and 28.6% and 21.4% and 20.2% and 40% and 46% and 32% and 40.3% and 43.5% and 51.6% |  |  |  |  | 
2 | Cn1cnc(CCN)c1 [N.tau.-methylhistamine] |  |  |  |  |  |  |  |  |  | 0.2 | 94.9 | 88.4 | 86 | 
3 | CC(=O)NCCc1c[nH]c2ccc(O)cc12 [Acetyl 5-HT, N-acetylserotonin] |  |  |  | 48.65 ± 12.56 | 39.23 ± 13.72 |  |  | 78.3% and 52.2% and 56.5% and 82.6% and 42.3% and 38.4% and 50.0% and 33.4% and 53.6% and 43.9% and 48.8% and 53.7% | 61.4% and 47.4% and 42.1% and 40.4% and 47.1% and 40.0% and 30.8% and 47.7% and 36.9% and 48.5% and 52.4% and 54.4% and 26.9% and 14.4% and 10.6% and 15.4% and 18.3% |  |  |  |  | 64.32 ± 14.9% and 42.28 ± 4.74% and 48.78 ± 4.88%
4 | NCCc1c[nH]cn1 [histamine] |  |  |  |  |  |  |  |  |  | 0.1 | 99.1 | 90.0 | 96 | 
5 | CNCCc1c[nH]cn1 [Nα-methylhistamine, reference compound] |  |  |  |  |  |  |  |  |  | 1 | 98.2 | 88.3 |  | 
